These are yes or no findings as the source states them, for the method shown. In cells and extracts the contact can be indirect. Some binding calls cover weakened binding; strength is not graded here. For some of these results: Where a sequence is shown, tags or fusion partners need not be part of it. Values belong to the binder of their own block, whether it stands above or below them.
Columns and labels:
[1] = target: T1, DNA damage-inducible transcript 4-like (DDIT4L) (UniProt Q96D03); test: proximity ligation; in HEK293 cells
T1 sequence: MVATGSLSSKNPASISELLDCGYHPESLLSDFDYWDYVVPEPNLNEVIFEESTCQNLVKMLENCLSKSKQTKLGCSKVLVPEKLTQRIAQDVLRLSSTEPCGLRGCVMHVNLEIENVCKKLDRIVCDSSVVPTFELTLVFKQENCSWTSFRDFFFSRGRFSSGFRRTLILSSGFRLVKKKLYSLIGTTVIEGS

Chains of the proteins cited; added tags and fusions are not shown. Residues count along the entry.
UniProt P25705, residues 44-553: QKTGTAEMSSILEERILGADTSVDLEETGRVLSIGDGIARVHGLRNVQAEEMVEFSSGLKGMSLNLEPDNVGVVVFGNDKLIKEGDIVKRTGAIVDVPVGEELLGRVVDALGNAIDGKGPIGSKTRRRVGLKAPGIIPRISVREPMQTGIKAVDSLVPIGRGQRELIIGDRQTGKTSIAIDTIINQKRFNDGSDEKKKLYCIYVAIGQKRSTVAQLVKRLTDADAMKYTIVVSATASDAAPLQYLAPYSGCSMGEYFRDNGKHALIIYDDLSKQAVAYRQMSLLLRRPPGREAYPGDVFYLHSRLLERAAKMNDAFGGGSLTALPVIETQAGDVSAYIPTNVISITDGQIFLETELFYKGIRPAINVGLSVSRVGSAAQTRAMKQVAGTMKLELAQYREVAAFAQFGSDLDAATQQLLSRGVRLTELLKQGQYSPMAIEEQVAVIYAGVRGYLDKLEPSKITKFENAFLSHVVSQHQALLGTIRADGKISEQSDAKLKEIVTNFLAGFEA

DDIT4L-myc [2] = target: T2, DDIT4L-myc (UniProt Q96D03); test: co-IP; GBM primary cells (hGBM11879) co-expressing TOM40-HA and DDIT4L-myc; precipitated with anti-myc antibody, HA detected; n = 3
T2 sequence: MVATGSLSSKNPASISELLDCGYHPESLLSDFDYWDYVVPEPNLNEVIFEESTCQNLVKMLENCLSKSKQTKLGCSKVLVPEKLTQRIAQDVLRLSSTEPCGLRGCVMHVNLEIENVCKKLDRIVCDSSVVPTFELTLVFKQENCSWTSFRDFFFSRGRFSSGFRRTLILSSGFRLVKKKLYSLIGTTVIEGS

DDIT4LΔ1-myc = target: T3, DDIT4LΔ1-myc (UniProt Q96D03); test: co-IP; HEK293 cells expressing TOM40-HA with DDIT4L-myc or its deletion mutants; precipitated with anti-myc antibody, HA detected; n = 3
T3 sequence: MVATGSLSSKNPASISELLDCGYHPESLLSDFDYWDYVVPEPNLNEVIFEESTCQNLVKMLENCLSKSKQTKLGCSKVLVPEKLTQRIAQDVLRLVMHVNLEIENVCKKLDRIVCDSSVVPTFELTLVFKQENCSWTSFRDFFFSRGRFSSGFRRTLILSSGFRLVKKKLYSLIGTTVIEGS

DDIT4LΔ2-myc = target: T4, DDIT4LΔ2-myc (UniProt Q96D03); test: as above
T4 sequence: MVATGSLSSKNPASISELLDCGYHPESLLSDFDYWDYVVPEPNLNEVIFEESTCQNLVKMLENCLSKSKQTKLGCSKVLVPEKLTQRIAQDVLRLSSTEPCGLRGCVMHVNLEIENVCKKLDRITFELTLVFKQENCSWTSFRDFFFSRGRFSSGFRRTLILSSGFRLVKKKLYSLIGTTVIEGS

DDIT4LΔ3-myc = target: T5, DDIT4LΔ3-myc (UniProt Q96D03); test: as above
T5 sequence: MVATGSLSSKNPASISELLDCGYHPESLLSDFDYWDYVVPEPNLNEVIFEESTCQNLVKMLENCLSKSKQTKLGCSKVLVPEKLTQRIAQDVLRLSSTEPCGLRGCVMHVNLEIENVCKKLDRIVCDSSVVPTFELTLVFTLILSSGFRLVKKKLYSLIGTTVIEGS

DDIT4L-myc [3] = target: T2, DDIT4L-myc; test: as above
ATP5A-HA = ATP5A-HA (UniProt P25705); test: co-IP; HEK293T cells expressing ATP5A-HA with DDIT4L-myc or its deletion mutants; precipitated with anti-HA antibody, myc detected; n = 3

B1: TOM40 (protein, UniProt O96008 1-361)
chain: MGNVLAASSPPAGPPPPPAPALVGLPPPPPSPPGFTLPPLGGSLGAGTSTSRSSERTPGAATASASGAAEDGACGCLPNPGTFEECHRKCKELFPIQMEGVKLTVNKGLSNHFQVNHTVALSTIGESNYHFGVTYVGTKQLSPTEAFPVLVGDMDNSGSLNAQVIHQLGPGLRSKMAIQTQQSKFVNWQVDGEYRGSDFTAAVTLGNPDVLVGSGILVAHYLQSITPCLALGGELVYHRRPGEEGTVMSLAGKYTLNNWLATVTLGQAGMHATYYHKASDQLQVGVEFEASTRMQDTSVSFGYQLDLPKANLLFKGSVDSNWIVGATLEKKLPPLPLTLALGAFLNHRKNKFQCGFGLTIG
- binding [1]: binds

B6: DDIT4LΔ1-myc (protein, UniProt Q96D03)
chain: MVATGSLSSKNPASISELLDCGYHPESLLSDFDYWDYVVPEPNLNEVIFEESTCQNLVKMLENCLSKSKQTKLGCSKVLVPEKLTQRIAQDVLRLVMHVNLEIENVCKKLDRIVCDSSVVPTFELTLVFKQENCSWTSFRDFFFSRGRFSSGFRRTLILSSGFRLVKKKLYSLIGTTVIEGS
- binding (ATP5A-HA): binds

Continued, values first:

- binding (DDIT4L-myc [2]): binds
- binding (DDIT4LΔ1-myc): binds
- binding (DDIT4LΔ2-myc): binds
- binding (DDIT4LΔ3-myc): binds
- binding (DDIT4L-myc [3]): binds
B2: TOM40-HA (protein, UniProt O96008 1-361)
chain: MGNVLAASSPPAGPPPPPAPALVGLPPPPPSPPGFTLPPLGGSLGAGTSTSRSSERTPGAATASASGAAEDGACGCLPNPGTFEECHRKCKELFPIQMEGVKLTVNKGLSNHFQVNHTVALSTIGESNYHFGVTYVGTKQLSPTEAFPVLVGDMDNSGSLNAQVIHQLGPGLRSKMAIQTQQSKFVNWQVDGEYRGSDFTAAVTLGNPDVLVGSGILVAHYLQSITPCLALGGELVYHRRPGEEGTVMSLAGKYTLNNWLATVTLGQAGMHATYYHKASDQLQVGVEFEASTRMQDTSVSFGYQLDLPKANLLFKGSVDSNWIVGATLEKKLPPLPLTLALGAFLNHRKNKFQCGFGLTIG

- binding (ATP5A-HA): binds
B3: DDIT4LΔ3-myc (protein, UniProt Q96D03)
chain: MVATGSLSSKNPASISELLDCGYHPESLLSDFDYWDYVVPEPNLNEVIFEESTCQNLVKMLENCLSKSKQTKLGCSKVLVPEKLTQRIAQDVLRLSSTEPCGLRGCVMHVNLEIENVCKKLDRIVCDSSVVPTFELTLVFTLILSSGFRLVKKKLYSLIGTTVIEGS

- binding (ATP5A-HA): binds
B4: DDIT4LΔ2-myc (protein, UniProt Q96D03)
chain: MVATGSLSSKNPASISELLDCGYHPESLLSDFDYWDYVVPEPNLNEVIFEESTCQNLVKMLENCLSKSKQTKLGCSKVLVPEKLTQRIAQDVLRLSSTEPCGLRGCVMHVNLEIENVCKKLDRITFELTLVFKQENCSWTSFRDFFFSRGRFSSGFRRTLILSSGFRLVKKKLYSLIGTTVIEGS

- binding (ATP5A-HA): binds
B5: DDIT4L-myc (protein, UniProt Q96D03 1-193)
chain: MVATGSLSSKNPASISELLDCGYHPESLLSDFDYWDYVVPEPNLNEVIFEESTCQNLVKMLENCLSKSKQTKLGCSKVLVPEKLTQRIAQDVLRLSSTEPCGLRGCVMHVNLEIENVCKKLDRIVCDSSVVPTFELTLVFKQENCSWTSFRDFFFSRGRFSSGFRRTLILSSGFRLVKKKLYSLIGTTVIEGS

— paper PMC13571239
